Data on five molecules can be found in paper PMC4692527.

In assay [1] the target is T1, M13 phage-displayed PEP2 (Class II clones).
T1 sequence: VENKTRYHDREV
Nature of the assay: far-Western, overlay or dot blot; M13 phage clones adsorbed onto nitrocellulose and hybridized to purified His-tagged FvTox1; FvTox1 detected with an anti-His antibody; only the binder purified.

Assay [2] concerns the target T2, M13 phage-displayed PEP4 (Class IV clone).
T2 sequence: SNGRVAD
The description is as above.

The target in assay [3] is T3, M13 phage-displayed PEP1 (Class I clones).
T3 sequence: SYLPETIYEYRL
Described as above.

The target of assay [4] is T4, M13 phage-displayed PEP3 (Class III clone).
T4 sequence: HEGAWHNYARSV
The description is as above.

Assay [5] deals with FvTox1 (His-tagged at C-terminus), expressed in an insect cell line (Fusarium virguliforme). Nature of the assay: far-Western, overlay or dot blot; 3 μl FvTox1 (100 ng/μl) dried on nitrocellulose strips; incubated overnight at 4°C with a phage clone (1×10^14 pfu) in PBS; detected with anti-M13 monoclonal antibody; both purified.

No constants are given. Whether binding was seen depends on the method and setting. Binding calls can cover weak binding; strength is not graded here.

“FvTox1 (His-tagged at C-terminus), expressed in an insect cell line (Fusarium virguliforme)”: the binding result in assay [1], in assay [2], in assay [3] and in assay [4] was “binds” in each case.

B1: M13 phage-displayed PEP4 (Class IV clone) (peptide)
chain: SNGRVAD
As for B1, in assay [5], the binding entry was “binds”.

B2: M13 phage-displayed PEP3 (Class III clone) (peptide)
chain: HEGAWHNYARSV
For B2, the binding result in assay [5] is on record as “binds”.

B3: M13 phage-displayed PEP1 (Class I clones) (peptide)
chain: SYLPETIYEYRL
Turning to B3, the binding entry in assay [5] is reported as “binds”.

B4: M13 phage-displayed PEP2 (Class II clones) (peptide)
chain: VENKTRYHDREV
As for B4, the binding entry in assay [5] is “binds”.
